At least one compound was matched to its structure with a doubt left.
How the values were obtained:
HSP70 = HSP70 Western blot in MCF-7 cells; format: cell-based, human; conditions: MCF-7 lysate, 16-20 hours
Procedure: (§1) MCF-7 breast cancer cells were cultured in DMEM supplemented with 10% FCS. Test compounds were added to the medium in a final concentration of […] for 16-20 hours. Ratio death and living cells was determined by using trypan blue staining of death cells. The cell pellets were lysed in RIPA buffer and used for Western blot analysis.
(§2) Western-blot analysis was performed as described previously^3, 10. Equal amount of protein in SDS-PAGE sample buffer was sonicated before separation on 10% PAA-SDS gels. After transfer to nitrocellulose membranes (Stratagene, The Netherlands), membranes were incubated with primary antibodies against HSP25 (Stressgen, The Netherlands, SPA-801, 1:1000), HSP27 (Stressgen, SPA-800, 1:1000), HSP70 (Stressgen, SPA-810, 1:1000), GAPDH (Affinity Reagents, The Netherlands) or PARP (Santa Cruz, The Netherlands, sc-7150, 1:500). Horseradish peroxidase-conjugated anti-mouse or anti-rabbit (Santa-Cruz Biotechnology, The Netherlands) was used as secondary antibody. Signals were detected by the ECL-detection method (Amersham, The Netherlands) and quantified by densitometry using GeneTools software from Syngene (The Netherlands).

HSP27 = HSP27 Western blot in MCF-7 cells; format: cell-based, human; conditions: MCF-7 lysate, 16-20 hours
Procedure: as §1, §2

| SMILES | Cell Death MCF-7 cancer cells HSP 70 (HSP70) | Cell Death MCF-7 cancer cells HSP 27 (HSP27) |
| --- | --- | --- |
| CC(C)=CCC/C(C)=C/CNC(=O)Nc1cccc(F)c1 [Compound 45] | − |  |
| CC(C)=CCC/C(C)=C/CNC(=O)c1ccccc1O [Compound 101] | − |  |
| CCCC(=O)N(C/C=C(\C)CCC=C(C)C)C(=O)CCC [Compound 127] |  | − |
